# Data as given in US20240084330A1.
# These are yes or no findings as the source states them, for the method shown. Some entries that bind do so weakly or less than the wild type. Sequences can lack the tags named with a protein.
# B1: MmPEG10 (mouse PEG10 produced in E. coli, tags removed) (protein, UniProt Q7TN75 1-958, looked up)
# chain: MAAAGGSSNCPPPPPPPPPNNNNNNNTPKSPGVPDAEDDDERRHDELPEDINNFDEDMNRQFENMNLLDQVELLAQSYSLLDHLDDFDDDDEDDDFDPEPDQDELPEYSDDDDLELQGAAAAPIPNFFSDDDCLEDLPEKFDGNPDMLGPFMYQCQLFMEKSTRDFSVDRIRVCFVTSMLIGRAARWATAKLQRCTYLMHNYTAFMMELKHVFEDPQRREAAKRKIRRLRQGPGPVVDYSNAFQMIAQDLDWTEPALMDQFQEGLNPDIRAELSRQEAPKTLAALITACIHIERRLARDAAAKPDPSPRALVMPPNSQTDPTEPVGGARMRLSKEEKERRRKMNLCLYCGNGGHFADTCPAKASKNSPPGKLPGPAVGGPSATGPERIRSPPSEASTQHLQVMLQIHMPGRPTLFVRAMIDSGASGNFIDQDFVIQNAIPLRIKDWPVMVEAIDGHPIASGPIILETHHLIVDLGDHREILSFDVTQSPFFPIVLGIRWLSTHDPHITWSTRSIVFNSDYCRLRCRMFAQIPSNLLFTVPQPNLHPYLLHHVHPHVHPHMHQHLHQHLHQFLHPDPHQYPHPDPHYHHHQQADMQHQLQQYLYQYLYYHLYPVMHHHLPPDQHEHLHEYLHQYLHQYLHQFLHHHLHPDLHQYLYQYLHNHMNPDPHHHPHPDPPQDPHHPPHQDPHQHPDPHQDPPHQDPHQDAHQDPHMDPHLHQHQHPQPQPHPQQHPNHPQQPPFFYHMAGFRIYHPVRYYYIQNVYTPVDEHVYPGHRVVDPNIEMIPGAHSLPSGHLYSMSESEMNALRNFVDRNVKDGLMTPTVAPNGAQVLQVKRGWKLQVTYNCRAPQSGTIQNQYLRMSLPNMGDPAHLASYGEFVQVPGYPYPAYVYYTSPHMMTAWYPVGRDVHGRIIVVPVVITWSQNTNRQPPVPQYPPPQPPPPPPPPPPPPPPPPASSCSAA
# Biological target: MmPEG10 (mouse PEG10 produced in E. coli, tags removed) (mouse) (UniProt Q7TN75)
# Experiment: self-assembly of E. coli-produced protein; size exclusion and electron microscopy
binder,measurement,value
B1,binding,binds
